Assay results: patent US8329390B2, “Detection of transmembrane potentials using N,N,N′-trialkyl thiobarbituric acid-derived polymethine oxonols” (priority 2004, dated 2012)
Some entries share one result that the patent states for a list of compounds.

Tested on: HEK293 cell line that stably incorporates a CNG channel mutant gene (endogenous adenosine A2B receptor)
Test: Detection of cAMP-dependent activation of CNG channels by membrane depolarization (dye fluorescence after NECA)
Assay type: cell-based, human
Conditions: dye at 30 μM, 2 hours at room temperature, HEK293-CNG cells

SMILES | increase in fluorescence intensity on addition of NECA agonist
CN1C(=O)C(=C/C=C/c2c(O)[nH]c(=S)n(C)c2=O)C(=O)N(C)C1=S [Compound 4] | 2-7 fold
COCCCN1C(=O)/C(=C/C=C/c2c(O)[nH]c(=S)n(C)c2=O)C(=O)N(C)C1=S [Compound 7] | 2-7 fold
